PubChem BioAssay AID504791 | Drosophila RNAi Screening Center | 2011

Screen: 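Factors in Argonaute-based small RNA production and activity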 (primary screen)
Cells: Drosophila S2-derived reporter cells
Knock-down reagent: long dsRNA against Drosophila genes, about 150-250 ng dsRNA per well (siRNA assay); about 80-120 ng (miRNA assay)
Timing: about 5 days (siRNA assay); about 4 days (miRNA assay)
Conditions: copper sulfate induction of reporters: 25 µM (siRNA assay); 200 mM stated (miRNA assay), 1-2 days before reading
Detection: 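Dual luciferase assay: Renilla to firefly signal ratio in each well, scaled to the mean ratio of its plate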
Active means: 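a well was a first-pass pick when its plate-scaled ratio rose above 1.5 (siRNA assay) or 1.6 (miRNA assay), or dropped below 0.6; a gene counted only if two separate dsRNAs agreed on retest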
The screen tested about 23,000 reagents; shown is an unselected part of those with a known target gene and a result. Of all reagents, 199 (0.86%) were called active. 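Plate-scaled ratios behind the calls are not deposited; printed light signals are raw; many rows marked increased or decreased are still called inactive.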 Names joined by + are all predicted targets of the reagent. The record does not give: the direction of the score.

Target gene,DRSC id,stable siRNA reporter change,miRNA reporter change,"stable assay Renilla, run 1 (luminescence)","stable assay firefly, run 1 (luminescence)",Call
CG5768,DRSC15870,,,8394,4.02e5,inactive
CG13954,DRSC06442,,,6011,3.28e5,inactive
Ir87a (Ionotropic receptor 87a),DRSC14836,,,6136,2.97e5,inactive
Amy-p (Amylase proximal),DRSC06786,,,6983,3.47e5,inactive
"Polr2F (RNA polymerase II, I and III subunit F)",DRSC12366,,,4227,1.86e5,inactive
CG34040,DRSC03902,,,4960,3.37e5,inactive
CG8929,DRSC07298,,,9340,3.65e5,inactive
CG8929,DRSC22847,,,4780,4.63e5,inactive
Muc68E (Mucin 68E),DRSC09146,,,4163,3.29e5,inactive
nAChRalpha3 (nicotinic Acetylcholine Receptor alpha3),DRSC18800,,,5884,2.81e5,inactive
ea (easter),DRSC16939,,,6971,3.38e5,inactive
Nrd1 (Nardilysin),DRSC19830,,,8036,3.80e5,inactive
CG6788 + CR32496,DRSC22043,,,9511,6.13e5,inactive
kumpel (kin of rumpel),DRSC14883,,,8886,3.54e5,inactive
kumpel (kin of rumpel),DRSC16459,,,7626,4.19e5,inactive
kumpel (kin of rumpel),DRSC16460,,,7719,4.75e5,inactive
kumpel (kin of rumpel),DRSC16461,,,7462,4.46e5,inactive
kumpel (kin of rumpel),DRSC16462,,,7191,3.82e5,inactive
kumpel (kin of rumpel),DRSC16463,,,6810,3.00e5,inactive
CG34282,DRSC16298,,,7808,4.39e5,inactive
CG42676,DRSC08227,,,7555,1.92e5,inactive
CG42676,DRSC08392,,,5171,3.32e5,inactive
coro (Coronin),DRSC05007,,,1.53e5,1.51e6,inactive
coro (Coronin),DRSC21417,,,10685,5.70e5,inactive
RpL7 (Ribosomal protein L7),DRSC03417,,,7933,3.50e5,inactive
CG32219,DRSC09641,,,5883,4.40e5,inactive
CG9759,DRSC16558,,,6884,5.58e5,inactive
Cpsf6 (Cleavage and polyadenylation specific factor 6),DRSC10781,reporter ratio raised past the hit cutoff,reporter ratio raised past the hit cutoff,34261,6.14e5,active
CCT2 (Chaperonin containing TCP1 subunit 2),DRSC18415,,,7432,3.96e5,inactive
Hmt-1 (Heavy metal tolerance factor 1),DRSC15555,,reporter ratio raised past the hit cutoff,8490,3.96e5,inactive
CG7856,DRSC04896,,,5779,3.58e5,inactive
Cp15 (Chorion protein 15),DRSC11118,,,5487,3.58e5,inactive
kmr (kramer),DRSC12986,,,4580,4.03e5,inactive
kmr (kramer),DRSC14827,,,7702,4.21e5,inactive
kmr (kramer),DRSC14828,,,7797,4.60e5,inactive
kmr (kramer),DRSC16472,,,7714,5.48e5,inactive
Ahcy (Adenosylhomocysteinase),DRSC19329,,,9195,4.07e5,inactive
FAM21 (Family with sequence similarity 21),DRSC06623,,,7266,3.08e5,inactive
Cep290 (Centrosomal protein 290kDa),DRSC08359,,,5108,3.49e5,inactive
CG18810,DRSC02701,,,6731,4.19e5,inactive
CG1304,DRSC20494,,,5098,3.50e5,inactive
CG3251,DRSC00586,,,11056,6.49e5,inactive
msl-1 (male-specific lethal 1),DRSC03573,,,6620,4.42e5,inactive
Phlpp (PH domain leucine-rich repeat protein phosphatase),DRSC02065,,,6871,4.29e5,inactive
Phlpp (PH domain leucine-rich repeat protein phosphatase),DRSC22808,,,4968,3.03e5,inactive
miple1 (midkine and pleiotrophin 1),DRSC08722,,,6051,3.52e5,inactive
Lk (Leucokinin),DRSC10022,,,6846,4.15e5,inactive
mRpL32 (mitochondrial ribosomal protein L32),DRSC14479,,,6491,4.91e5,inactive
CG8028,DRSC20075,,,5560,3.59e5,inactive
Mtp (Microsomal triacylglycerol transfer protein),DRSC03216,,,11621,4.50e5,inactive
CG13121 (retired record),DRSC02217,,,7621,4.40e5,inactive
CG5892,DRSC15910,,,8010,4.83e5,inactive
bru2 (bruno 2),DRSC01246,,,4687,4.34e5,inactive
bru2 (bruno 2),DRSC01247,,,4340,3.85e5,inactive
bru2 (bruno 2),DRSC01249,,,4848,3.65e5,inactive
bru2 (bruno 2),DRSC01250,,,4335,3.92e5,inactive
bru2 (bruno 2),DRSC02557,,,6406,2.89e5,inactive
CG3288,DRSC11745,,,7274,3.43e5,inactive
CG12826,DRSC06175,,,6424,3.56e5,inactive
CG7945,DRSC10934,,,7279,2.65e5,inactive
Esp (Epidermal stripes and patches),DRSC16664,,,6667,3.55e5,inactive
CG17378,DRSC02616,,,8213,4.06e5,inactive
Scox (Synthesis of cytochrome c oxidase),DRSC03117,,,6476,4.56e5,inactive
CG15395,DRSC00409,,,7135,3.84e5,inactive
Gs1l (GS1-like),DRSC00754,,,7475,4.89e5,inactive
CG9514,DRSC20190,,,4987,2.94e5,inactive
CG9514,DRSC20191,,,5231,3.30e5,inactive
CG9632,DRSC16528,,,7324,3.93e5,inactive
pea (peanuts),DRSC07120,,,8030,3.89e5,inactive
CG7366,DRSC10825,,,5480,5.47e5,inactive
Drep2 (DNA fragmentation factor-related protein 2),DRSC07528,,,8157,4.38e5,inactive
Gbs-76A (Glycogen binding subunit 76A),DRSC11081,,,8695,4.44e5,inactive
CG2750,DRSC19867,,,5092,4.74e5,inactive
CG13575,DRSC04211,,,5612,3.54e5,inactive
CG13575,DRSC22851,,,4536,4.17e5,inactive
O-fut1 (O-fucosyltransferase 1),DRSC06138,,,8245,4.00e5,inactive
CG4619,DRSC02764,,,6238,3.62e5,inactive
TotM (Turandot M),DRSC02355,,,8685,4.78e5,inactive
CG14913,DRSC02397,,,8045,3.97e5,inactive
wmd (wing morphogenesis defect),DRSC04436,,,1.68e5,3.07e5,inactive
Fas1 (Fasciclin 1),DRSC16669,,,7066,5.20e5,inactive
wda (will decrease acetylation),DRSC15579,,,4235,4.82e5,inactive
wda (will decrease acetylation),DRSC22351,,,8992,6.36e5,inactive
